# Library screening results

The filed quantity is “Percent Effect” (%).
How 0% and 100% were set is not recorded. Most values in the screen are low, and negative values occur.
The compounds are a random part of those screened.
A dash means the value is not listed here; it may have been measured.

A: 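Whole-cell assay for inhibitors of Mycobacterium tuberculosis growth, labelled Cornell in the record; the read-out is not stated. The concentration is filed as 10 mM, unlikely as a test dose, so the dose is not known. Higher means stronger inhibition (inferred from two other growth screens of the library). Of about 53,000 compounds tested this way, about 900 (1.7%) reached 50% or more in at least one test.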
B: 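Assay on Mycobacterium tuberculosis, filed only as a heat shock assay from Cornell; the read-out is not stated. The concentration is filed as 10 mM, unlikely as a test dose, so the dose is not known. Direction is inferred from retests: higher values go with stronger inhibition. About 69,000 compounds were tested under these conditions; 1.4% (about 930) showed 50% or more at least once.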

Compound	A	B
CS(=O)(=O)N1CCC2(CC1)CC(CC(=O)N1CCCC1)c1ccccc12 (stereo not shown)	13.35%	10.88%
CC(C)N1CCOCC2(CCCN(C(=O)c3cncn3C)C2)C1.O=C(O)C(F)(F)F (stereo not shown)	13.56%	-1.737%
CC(Nc1ccc(C(F)(F)F)cc1C#N)c1cccc(S(N)(=O)=O)c1 (stereo not shown)	10.36%	15.45%
N#Cc1ccc(C(=O)N(C2CC2)C2CC(=O)NC2=O)cc1 (stereo not shown)	-14.83%	-5.542%
[H][C@]12CC[C@]([H])(CN(C(=O)CSc3nc(CC)n[nH]3)C1)N(CC=C(C)C)C2	-1.727%	14.06%
Cc1ccccc1N1CCCN(C(=O)CN2C(=O)OC[C@@H]2C(C)C)CC1	-15.55%	-17.67%
[H][C@]12CCN(C(=O)Cc3ccsc3)C[C@@]1([H])OCCN(CCN(C)C)C2	-9.387%	50.48%
CC(C)C(C#N)N1CCN(Cc2nccn2CC(F)(F)F)CC1 (stereo not shown)	-2.694%	-10.52%
CCN(CC)c1ccc(NC(=O)NCC2(C(N)=O)CCOCC2)cn1	39.31%	12.27%
Cn1cc(N2CCC3(CCN(S(=O)(=O)C4CC4)C3)C2=O)cn1 (stereo not shown)	7.554%	-10.49%
Cc1csc(CN2CC[C@@](O)(C3CCOCC3)[C@H](C)C2)n1	-1.529%	-4.724%
O=C(O)C(F)(F)F.[H][C@@]12OCCN(CCOCc3ccccc3)[C@@]1([H])CC[C@H]2OCC	-3.821%	4.192%
Cc1ccccc1SCC(=O)N[C@H]1CC[C@H](n2cnnc2)CC1	-	-5.128%
CNC(=O)N1CCC2(CC1)C(=O)N(C)c1c(F)cccc12	-9.24%	-17.21%
CN1CCN(c2ncnc3c2CCN(C(=O)c2cccn2C)CC3)CC1	-6.246%	-0.9836%
Cc1nc(Cc2ccc(F)cc2)cc(C2COCCN2)n1.Cl (stereo not shown)	10.51%	12.05%
O=C(N[C@@H]1CCN(C(=O)C2CCOCC2)C[C@H]1O)c1ccccn1	-16.07%	-9.197%
CCC(C)(NCC(=O)NC(C)C)c1nc(C)cs1 (stereo not shown)	-	2.393%
COc1ccccc1CC(=O)N1CCC(NCc2cccnc2)CC1	6.549%	1.813%
Cc1ncc2c(n1)CN(Cc1nc(-c3ccsc3)oc1C)CC2	-17.75%	25.03%
[H][C@@]12CCCCN(C)[C@]1([H])[C@@H](c1ccccc1)CCN2C(=O)c1cnccn1	-3.809%	24.54%
CC(=O)N(Cc1noc(C)n1)C1CCN(Cc2ncc(C(C)C)o2)C1 (stereo not shown)	-	-19.55%
Cc1nonc1CN1CC[C@@](O)(C2CCC2)[C@H](C)C1	-	-152.7%
Cc1nc2ccc(C(=O)N3C[C@@H](O)[C@H](N4CCCC4)C3)cc2[nH]1	1.956%	-4.143%
CN(C)C(=O)N1Cc2nnn(CC3CC3)c2C(COCC2CC2)C1 (stereo not shown)	19.4%	7.658%
CCc1ccc(C(=O)N2CCC(N(C)C(=O)OC(C)(C)C)C2)o1 (stereo not shown)	32.89%	8.64%
CCS(=O)(=O)N1CCC2(CC(=O)N(c3cnn(C)c3)C2)C1 (stereo not shown)	8.914%	5.828%
CCC(O)(CNCc1ccncc1)c1ccc(Br)cc1 (stereo not shown)	13.65%	0.5382%
COCCN1CCC2(CC1)CN(C(=O)N(C)C)c1ccc(C)cc12.O=C(O)C(F)(F)F	1.295%	-10.15%
Cc1nc(NC(=O)N[C@H](CO)c2ccccc2)sc1C	-2.815%	-3.633%
COc1ccccc1C(=O)NCCC(=O)Nc1c(C)nn(C)c1C	0.38%	8.394%
CCN(C(=O)CN(CC(N)=O)C(C)C)C1=CCCC1	-	-15.17%
CCN(CC)C(=O)CCn1ncc2c(Cl)cccc21	-	11.58%
c1cc(CN2CCc3nc(N4CCOCC4)nc(NC4CC4)c3C2)co1	-23.43%	-2.346%
NS(=O)(=O)c1cnn(CCC(=O)N(Cc2ccccc2)C2CC2)c1	5.641%	-14.22%
CCN1CC2(CCC1=O)CCN(Cc1cc(F)ccc1Cl)CC2	5.608%	-10.7%
Cn1c(CC2CCS(=O)(=O)C2)nnc1SCCOc1cccc(Cl)c1 (stereo not shown)	3.257%	2.768%
Cc1cnn(CCNCC(=O)N2CCN(c3ccccn3)CC2)c1	-1.791%	-35.4%
O=C(c1ccsc1)N1C[C@@H](CN2CCCC2)[C@@H](CO)C1	-1.045%	-9.549%
CN1CCCN(c2nccc(-c3c[nH]nc3-c3ccncc3)n2)CC1	5.292%	-29.5%
O=C(c1n[nH]c2ccccc12)N1CCCC1c1noc(C2CC2)n1 (stereo not shown)	50.46%	25.35%
COc1cc(F)c(CN2CC[C@@](O)(C3CC3)[C@H](C)C2)cc1OC	-	-3.165%
Cn1ccc(C(=O)N2CCCC2c2[nH]ncc2C(N)=O)n1 (stereo not shown)	-110.6%	-6.924%
CC(C)(C)OC(=O)NCC1CCCCN1Cc1cccc(C(N)=O)c1 (stereo not shown)	-	6.4%
Cc1nc(-n2cnnc2)ccc1-c1cccc2c1CCNC2	-1.305%	-8.93%
NC(=O)CCCNC(=O)CCc1cc(Br)cs1	-	-0.9387%
CC(=O)N1CCC(c2nc(Cc3ccccc3)no2)C1 (stereo not shown)	-8.533%	-4.548%
CCc1ncnc2c1CCN(CCOC)CC2.O=C(O)C(F)(F)F	-2.446%	16.95%
O=C(O)C(F)(F)F.[H][C@@]12COC[C@]1([H])[C@H](OCc1csc(C)n1)CN2Cc1ccsc1	-1.018%	-39.46%
Cc1cc(C)cc(C(=O)Nc2cn[nH]c2)c1	-	-0.05242%
Cc1ccc(N2CCCC(NCc3nnc4n3CCCC4)C2=O)cc1 (stereo not shown)	-	21.78%
CN(C(=O)Cn1nc(-c2ccc(F)cc2)oc1=O)C1CCS(=O)(=O)C1 (stereo not shown)	-6.776%	-11.03%
CN(C(=O)CN(Cc1cccc(O)c1)C1CCC(O)CC1)C1CC1 (stereo not shown)	-0.01012%	-2.909%
CCc1nc(C2CCCN(C(=O)c3ccccc3Cl)C2)no1 (stereo not shown)	-	-10.12%
CCOCc1nc2c(c(NCc3cc(C)on3)n1)CCN(C(C)=O)CC2	-5.033%	3.692%
CCNC(=O)[C@@H]1C[C@H](NC(=O)Cc2ccsc2)CN1Cc1ccc(C)o1	18.94%	18.96%
Cc1n[nH]c(NC(=O)c2ccc(COCC(F)(F)F)cc2)c1C	-10.1%	14.78%
COC1(CNC(=O)c2ccc(Cl)c(Cl)c2)CCSC1 (stereo not shown)	-3.324%	-8.318%
Cc1ccc(C)c(NC(=O)N(C)Cc2cnn(C)c2)c1	-2.475%	16.06%
N#Cc1cc(S(N)(=O)=O)ccc1NC1CCc2ccc(F)cc21 (stereo not shown)	9.993%	11.31%
Cc1ccc(NC2CCN(C(=O)c3cncnc3C)CC2)nn1	-	7.977%
O=C(c1cccnc1)N1CCN(c2ccc(-n3cccc3)nn2)CC1	11.53%	-3.088%
Cc1cccc(CS(=O)(=O)CC(=O)NCCCOC(C)C)c1	-12.4%	-22.03%
CC(C)COc1ccccc1C(N)CC(C)C (stereo not shown)	-	-26.57%

From ChEMBL document CHEMBL3988442, “University of Dundee, Small-Polar-MMV Screening Library” (2021).